Paper PMC7515946, “Targeting of Perforin Inhibitor into the Brain Parenchyma Via a Prodrug Approach Can Decrease Oxidative Stress and Neuroinflammation and Improve Cell Survival” (Molecular Neurobiology, 2020)

Test system: malondialdehyde (MDA) formation in primary astrocytes
Assay: LPS-induced lipid peroxidation (MDA formation) in primary astrocytes
Details: 50 μM

N[C@H](Cc1cccc(C(=O)OCc2ccc(-c3ccc(-c4ccc5c(c4)COC5=O)s3)cc2)c1)C(=O)O [PFI-PD]
Inhibitory effect on MDA formation, times greater than parent drug: ~2.0 | Inhibitory effect on MDA formation, times greater than α-tocopherol: 1.5
